# Cell number after 72 h of treatment

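Human melanoma cells were exposed to a pair of drugs for 72 h in 1,536-well plates and read by automated microscopy after fixing and staining. Each value is the count of nuclei relative to DMSO-treated wells, in %, so that 100 equals the control. Concentrations were fixed for each drug; these are the lower of two levels, a fifth of the higher. These are primary screening values without error estimates.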 An unselected part of the screen is shown. A dash means that no value is listed here.

Drugs:
SNS-314 (0.0008 µM): O=C(Nc1cccc(Cl)c1)Nc1ncc(CCNc2ncnc3ccsc23)s1
GW2580 (1 µM): COc1ccc(COc2ccc(Cc3cnc(N)nc3N)cc2OC)cc1
GSK650394 (0.16 µM): O=C(O)c1ccc(-c2c[nH]c3ncc(-c4ccccc4)cc23)cc1C1CCCC1
Src-I1 (2 µM): COc1cc2ncnc(Nc3ccc(Oc4ccccc4)cc3)c2cc1OC
bortezomib (0.001 µM): CC(C)C[C@H](NC(=O)[C@H](Cc1ccccc1)NC(=O)c1cnccn1)B(O)O
temozolomide (2 µM): Cn1nnc2c(C(N)=O)ncn2c1=O
GSK0660 (1 µM): COC(=O)c1sccc1S(=O)(=O)Nc1ccc(Nc2ccccc2)cc1OC
OSI-906 (0.4 µM): C[C@]1(O)C[C@@H](c2nc(-c3ccc4ccc(-c5ccccc5)nc4c3)c3c(N)nccn32)C1
JZL184 (1 µM): O=C(Oc1ccc([N+](=O)[O-])cc1)N1CCC(C(O)(c2ccc3c(c2)OCO3)c2ccc3c(c2)OCO3)CC1

Pair,MEL-HO,IPC-298,COLO 792,C32,A375,IST-MEL1,LOX IMVI,A101D,COLO 829,501mel,COLO 800,G-361,LB2518-MEL,A2058
SNS-314 + OSI-906,90.9,94.6,96.7,100,71.1,96.6,122,98.7,95.2,-,73.6,93.7,83.3,100
JZL184 + GSK650394,84.9,101,102,95.2,92.8,103,104,89.8,94.9,101,106,106,123,88.1
GSK0660 + JZL184,111,90.3,113,99.8,64.4,98.2,64.8,111,97.5,120,99.1,105,109,105
Src-I1 + OSI-906,94.7,90.0,76.5,104,-,98.7,166,100,96.5,77.3,56.6,97.8,102,84.4
temozolomide + JZL184,102,99.5,90.2,96.0,87.7,91.7,99.8,91.8,84.9,107,89.2,101,119,93.3
bortezomib + GSK0660,90.0,77.8,91.2,75.6,-,84.1,60.7,30.0,48.5,39.0,74.5,4.6,42.7,86.6
GW2580 + GSK650394,80.4,94.3,95.6,94.3,91.9,90.9,99.4,91.3,99.8,88.8,122,88.0,99.9,109
GW2580 + temozolomide,87.0,94.1,97.9,89.7,84.5,93.3,113,88.7,95.3,91.8,83.7,94.4,114,90.4
GSK0660 + GSK650394,76.6,95.1,102,97.5,104,102,99.2,104,93.0,101,121,87.4,99.8,85.9
GW2580 + JZL184,86.4,97.1,92.5,84.5,93.4,102,112,118,84.3,-,72.5,101,-,118
Src-I1 + SNS-314,82.2,95.8,79.8,96.6,121,96.6,106,102,78.5,92.8,68.6,85.5,97.5,103
OSI-906 + GW2580,94.8,95.8,101,98.0,-,103,114,101,95.4,82.5,93.4,95.8,103,84.6
GSK0660 + SNS-314,96.1,98.6,91.2,94.0,88.9,93.6,133,104,97.0,131,101,103,106,101
GSK0660 + temozolomide,98.0,94.4,90.4,106,116,100,79.9,121,95.9,116,98.2,108,115,89.7
SNS-314 + GW2580,86.3,96.0,90.4,90.4,102,91.0,93.1,119,119,96.6,83.1,97.8,88.9,108
Src-I1 + GSK650394,104,95.3,104,102,102,95.9,116,93.4,107,129,75.2,99.0,118,100
temozolomide + bortezomib,80.6,46.6,113,94.0,79.0,82.0,35.6,15.7,44.7,-,92.6,3.2,27.8,73.8
Src-I1 + bortezomib,110,62.0,96.6,82.9,-,87.5,94.0,23.6,68.7,46.7,56.1,6.3,37.2,85.6
SNS-314 + bortezomib,88.8,81.6,90.5,77.4,87.6,77.6,54.5,25.4,59.0,-,108,6.8,49.5,68.5
GSK650394 + OSI-906,91.0,95.2,96.0,89.0,73.6,96.9,123,109,120,-,70.0,89.6,98.0,97.5

2 of the entries, repeated:

| Pair | MEL-HO | IPC-298 | COLO 792 | C32 | A375 | IST-MEL1 | LOX IMVI | A101D | COLO 829 | 501mel | COLO 800 | G-361 | LB2518-MEL | A2058 |
|---|---|---|---|---|---|---|---|---|---|---|---|---|---|---|
| SNS-314 + GW2580 | 86.3 | 96.0 | 90.4 | 90.4 | 102 | 91.0 | 93.1 | 119 | 119 | 96.6 | 83.1 | 97.8 | 88.9 | 108 |
| GSK0660 + SNS-314 | 96.1 | 98.6 | 91.2 | 94.0 | 88.9 | 93.6 | 133 | 104 | 97.0 | 131 | 101 | 103 | 106 | 101 |

Values as published with doi:10.1371/journal.pone.0140310, rounded.